Measurements from doi:10.1101/2025.06.20.660667.
No constants are given. Whether binding was seen depends on the method and setting. In cells and extracts the contact can be indirect. Some entries that bind do so weakly or less than the wild type. Tags and fused reporters may be left off the sequences shown.

Protein sequences, listed by entry. Tags and fused reporters are not part of them.
UniProt P16118: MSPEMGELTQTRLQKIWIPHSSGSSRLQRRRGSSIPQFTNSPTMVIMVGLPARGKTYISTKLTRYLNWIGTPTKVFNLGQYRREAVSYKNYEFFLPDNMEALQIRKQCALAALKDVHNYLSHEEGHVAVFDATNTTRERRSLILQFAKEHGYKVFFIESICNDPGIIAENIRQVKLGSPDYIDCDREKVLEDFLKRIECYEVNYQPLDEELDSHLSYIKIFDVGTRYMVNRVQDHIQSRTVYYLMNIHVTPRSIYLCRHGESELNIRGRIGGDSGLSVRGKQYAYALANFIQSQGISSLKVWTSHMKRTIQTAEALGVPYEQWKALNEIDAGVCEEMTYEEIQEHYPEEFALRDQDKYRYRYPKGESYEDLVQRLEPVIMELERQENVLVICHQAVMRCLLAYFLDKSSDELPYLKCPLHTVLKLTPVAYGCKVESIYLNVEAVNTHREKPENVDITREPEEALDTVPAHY

Target: T1, myc-tagged PP6 (UniProt O00743)
T1 sequence: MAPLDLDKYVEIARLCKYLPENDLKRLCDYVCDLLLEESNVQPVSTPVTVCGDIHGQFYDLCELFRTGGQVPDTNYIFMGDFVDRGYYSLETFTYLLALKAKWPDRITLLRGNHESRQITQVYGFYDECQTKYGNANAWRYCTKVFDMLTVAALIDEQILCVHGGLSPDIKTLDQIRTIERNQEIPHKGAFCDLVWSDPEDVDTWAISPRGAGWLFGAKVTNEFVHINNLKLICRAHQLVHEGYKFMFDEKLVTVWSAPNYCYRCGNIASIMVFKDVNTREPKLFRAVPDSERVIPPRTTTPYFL
Assay: co-IP

In the case of “PFKFB1 in 293FT cells (from UniProt P16118 1-471) (enzyme)”, the binding is reported as “binds”.
